From publication PMC6633398

The chains behind the UniProt entries cited, without tags or fusion partners. Where a name states a change or a piece, a line headed by the entry shows the natural chain unless it says otherwise.
UniProt O43681: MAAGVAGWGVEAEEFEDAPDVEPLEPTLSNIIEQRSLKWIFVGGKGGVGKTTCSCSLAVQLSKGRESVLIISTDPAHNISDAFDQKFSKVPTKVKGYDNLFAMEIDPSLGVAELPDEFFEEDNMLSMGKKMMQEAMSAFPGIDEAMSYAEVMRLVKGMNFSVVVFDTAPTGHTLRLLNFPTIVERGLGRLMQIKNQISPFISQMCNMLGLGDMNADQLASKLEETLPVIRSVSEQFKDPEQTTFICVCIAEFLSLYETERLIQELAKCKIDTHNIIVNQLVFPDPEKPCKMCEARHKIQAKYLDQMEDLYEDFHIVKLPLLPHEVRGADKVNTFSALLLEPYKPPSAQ
UniProt O95292: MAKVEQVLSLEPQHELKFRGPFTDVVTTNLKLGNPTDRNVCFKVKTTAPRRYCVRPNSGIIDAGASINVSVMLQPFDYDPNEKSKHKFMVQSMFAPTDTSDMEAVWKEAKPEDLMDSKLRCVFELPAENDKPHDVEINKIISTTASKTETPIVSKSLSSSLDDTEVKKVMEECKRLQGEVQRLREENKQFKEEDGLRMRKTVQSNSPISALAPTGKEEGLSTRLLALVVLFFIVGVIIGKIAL
UniProt Q14789: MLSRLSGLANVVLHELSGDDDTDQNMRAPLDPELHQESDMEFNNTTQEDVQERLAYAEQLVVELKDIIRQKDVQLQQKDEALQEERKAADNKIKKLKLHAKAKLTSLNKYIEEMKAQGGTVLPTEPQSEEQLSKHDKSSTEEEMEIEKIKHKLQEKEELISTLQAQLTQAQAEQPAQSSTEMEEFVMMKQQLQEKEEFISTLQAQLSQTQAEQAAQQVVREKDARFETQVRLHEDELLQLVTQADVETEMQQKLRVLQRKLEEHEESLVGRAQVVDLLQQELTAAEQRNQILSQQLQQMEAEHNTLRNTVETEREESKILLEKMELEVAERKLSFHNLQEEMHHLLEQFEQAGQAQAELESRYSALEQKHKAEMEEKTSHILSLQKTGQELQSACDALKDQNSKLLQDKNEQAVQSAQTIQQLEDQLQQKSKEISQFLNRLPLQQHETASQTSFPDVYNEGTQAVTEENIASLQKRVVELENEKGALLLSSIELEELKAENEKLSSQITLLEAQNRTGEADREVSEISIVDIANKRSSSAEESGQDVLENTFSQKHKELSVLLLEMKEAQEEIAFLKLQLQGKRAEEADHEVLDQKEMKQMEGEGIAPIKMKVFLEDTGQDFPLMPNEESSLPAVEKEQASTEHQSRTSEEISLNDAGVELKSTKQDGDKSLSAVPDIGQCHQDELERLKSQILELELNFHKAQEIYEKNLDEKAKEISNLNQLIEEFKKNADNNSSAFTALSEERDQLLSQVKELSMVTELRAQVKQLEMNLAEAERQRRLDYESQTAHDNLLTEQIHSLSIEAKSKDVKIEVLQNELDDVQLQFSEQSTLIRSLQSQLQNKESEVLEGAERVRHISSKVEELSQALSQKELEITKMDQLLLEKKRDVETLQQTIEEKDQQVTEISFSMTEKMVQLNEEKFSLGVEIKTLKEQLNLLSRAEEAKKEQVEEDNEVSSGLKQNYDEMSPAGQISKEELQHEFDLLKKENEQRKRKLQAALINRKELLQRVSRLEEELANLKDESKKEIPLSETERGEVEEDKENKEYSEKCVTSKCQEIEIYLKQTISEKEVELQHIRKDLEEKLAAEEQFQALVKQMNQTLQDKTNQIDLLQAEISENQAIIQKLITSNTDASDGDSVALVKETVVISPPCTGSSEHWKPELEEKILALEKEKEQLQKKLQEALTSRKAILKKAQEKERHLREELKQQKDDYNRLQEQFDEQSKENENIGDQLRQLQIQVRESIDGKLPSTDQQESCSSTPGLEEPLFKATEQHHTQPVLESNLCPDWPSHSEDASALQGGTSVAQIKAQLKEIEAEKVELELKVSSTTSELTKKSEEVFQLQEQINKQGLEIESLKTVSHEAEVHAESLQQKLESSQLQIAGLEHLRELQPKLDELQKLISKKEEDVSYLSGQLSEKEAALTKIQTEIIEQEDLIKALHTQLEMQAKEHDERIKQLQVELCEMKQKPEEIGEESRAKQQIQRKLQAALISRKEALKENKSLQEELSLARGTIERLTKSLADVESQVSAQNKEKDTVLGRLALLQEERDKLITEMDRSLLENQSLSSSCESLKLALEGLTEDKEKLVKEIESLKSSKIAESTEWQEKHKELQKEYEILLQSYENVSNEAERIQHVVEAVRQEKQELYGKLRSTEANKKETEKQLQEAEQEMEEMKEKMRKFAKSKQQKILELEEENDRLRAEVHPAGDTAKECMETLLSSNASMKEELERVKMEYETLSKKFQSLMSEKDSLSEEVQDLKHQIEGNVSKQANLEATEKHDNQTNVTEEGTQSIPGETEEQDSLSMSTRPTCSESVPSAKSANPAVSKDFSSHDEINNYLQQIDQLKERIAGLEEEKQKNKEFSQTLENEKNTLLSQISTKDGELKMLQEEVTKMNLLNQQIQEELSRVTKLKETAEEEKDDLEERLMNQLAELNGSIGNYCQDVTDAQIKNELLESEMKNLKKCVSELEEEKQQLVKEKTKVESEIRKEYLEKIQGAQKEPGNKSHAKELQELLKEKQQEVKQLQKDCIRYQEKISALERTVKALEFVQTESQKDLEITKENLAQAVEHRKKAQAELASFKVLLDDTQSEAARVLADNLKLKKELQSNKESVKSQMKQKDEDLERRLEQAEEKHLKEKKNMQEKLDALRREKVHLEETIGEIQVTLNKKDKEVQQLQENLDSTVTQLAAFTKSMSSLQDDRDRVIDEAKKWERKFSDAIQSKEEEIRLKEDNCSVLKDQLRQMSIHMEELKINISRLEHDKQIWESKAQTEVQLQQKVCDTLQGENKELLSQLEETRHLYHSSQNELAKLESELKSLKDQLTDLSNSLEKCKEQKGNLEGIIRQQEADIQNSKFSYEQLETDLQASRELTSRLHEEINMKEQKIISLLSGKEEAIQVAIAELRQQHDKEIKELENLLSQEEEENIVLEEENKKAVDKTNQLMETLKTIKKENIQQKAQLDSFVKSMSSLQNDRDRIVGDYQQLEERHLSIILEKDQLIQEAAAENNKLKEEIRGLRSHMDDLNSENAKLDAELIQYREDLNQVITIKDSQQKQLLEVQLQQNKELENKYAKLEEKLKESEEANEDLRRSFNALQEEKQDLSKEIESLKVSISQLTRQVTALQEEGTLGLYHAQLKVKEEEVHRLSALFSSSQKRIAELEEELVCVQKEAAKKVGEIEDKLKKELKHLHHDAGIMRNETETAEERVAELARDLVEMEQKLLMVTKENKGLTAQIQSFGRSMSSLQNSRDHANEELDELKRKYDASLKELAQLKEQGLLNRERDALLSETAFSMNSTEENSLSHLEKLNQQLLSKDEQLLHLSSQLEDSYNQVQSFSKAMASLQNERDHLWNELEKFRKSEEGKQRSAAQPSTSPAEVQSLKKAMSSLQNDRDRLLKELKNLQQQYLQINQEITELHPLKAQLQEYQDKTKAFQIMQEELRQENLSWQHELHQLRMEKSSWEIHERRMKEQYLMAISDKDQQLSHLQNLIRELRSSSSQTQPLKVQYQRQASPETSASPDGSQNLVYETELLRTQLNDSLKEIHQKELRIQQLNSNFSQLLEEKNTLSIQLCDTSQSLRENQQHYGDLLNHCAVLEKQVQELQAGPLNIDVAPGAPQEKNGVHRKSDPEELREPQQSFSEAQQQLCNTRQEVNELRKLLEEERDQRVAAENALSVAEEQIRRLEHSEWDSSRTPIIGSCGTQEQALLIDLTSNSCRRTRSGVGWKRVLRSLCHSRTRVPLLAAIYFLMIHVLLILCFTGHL

Experiments:
[1] = target: c-Myc–TRC40_(D74E), ATPase-impaired trap mutant of TRC40 (UniProt O43681)
[2] = target: c-Myc–TRC40_(D74E), ATPase-impaired trap mutant of TRC40 (UniProt O43681); remark: listed apart in the source

binding [1] | binding [2] | Substance
binds | – | vesicle-associated membrane-protein-associated protein VAPB (from UniProt O95292 1-243)
– | binds | giantin (also known as GOLGB1) (from UniProt Q14789 1-3259)

Read-outs that look alike come from different tables or passages of the source. These are yes or no findings as the source states them, for the method shown. In cells and extracts the contact can be indirect. Here binding means that the protein was enriched with, or labelled near, the bait; the list need not be complete.
